In this assay the target is GFP::CDK5RAP2 isoform B, full length, wild type (assembled into micron-scale scaffolds with anti-CM2 IgM) (human) (UniProt Q96SN8). In words: partitioning into in vitro scaffolds (confocal fluorescence microscopy); 120 nM GFP::CDK5RAP2 assembled with anti-CM2 IgM, 50 nM mCherry, mCherry::HSET or mCherry::HSET(ΔIDR); 50 mM KCl, 25 mM HEPES; partition coefficient of mCherry signal; both purified.

Protein sequences, listed by entry. Tags and fused reporters are not part of them. Lines headed by an entry give the natural chain unless they say otherwise; changes in a name come on top. Chains listed by the source or under a name are the forms on record and can include a tag or linker.
GFP::CDK5RAP2 isoform B, full length, wild type (assembled into micron-scale scaffolds with anti-CM2 IgM) (Q96SN8, form named): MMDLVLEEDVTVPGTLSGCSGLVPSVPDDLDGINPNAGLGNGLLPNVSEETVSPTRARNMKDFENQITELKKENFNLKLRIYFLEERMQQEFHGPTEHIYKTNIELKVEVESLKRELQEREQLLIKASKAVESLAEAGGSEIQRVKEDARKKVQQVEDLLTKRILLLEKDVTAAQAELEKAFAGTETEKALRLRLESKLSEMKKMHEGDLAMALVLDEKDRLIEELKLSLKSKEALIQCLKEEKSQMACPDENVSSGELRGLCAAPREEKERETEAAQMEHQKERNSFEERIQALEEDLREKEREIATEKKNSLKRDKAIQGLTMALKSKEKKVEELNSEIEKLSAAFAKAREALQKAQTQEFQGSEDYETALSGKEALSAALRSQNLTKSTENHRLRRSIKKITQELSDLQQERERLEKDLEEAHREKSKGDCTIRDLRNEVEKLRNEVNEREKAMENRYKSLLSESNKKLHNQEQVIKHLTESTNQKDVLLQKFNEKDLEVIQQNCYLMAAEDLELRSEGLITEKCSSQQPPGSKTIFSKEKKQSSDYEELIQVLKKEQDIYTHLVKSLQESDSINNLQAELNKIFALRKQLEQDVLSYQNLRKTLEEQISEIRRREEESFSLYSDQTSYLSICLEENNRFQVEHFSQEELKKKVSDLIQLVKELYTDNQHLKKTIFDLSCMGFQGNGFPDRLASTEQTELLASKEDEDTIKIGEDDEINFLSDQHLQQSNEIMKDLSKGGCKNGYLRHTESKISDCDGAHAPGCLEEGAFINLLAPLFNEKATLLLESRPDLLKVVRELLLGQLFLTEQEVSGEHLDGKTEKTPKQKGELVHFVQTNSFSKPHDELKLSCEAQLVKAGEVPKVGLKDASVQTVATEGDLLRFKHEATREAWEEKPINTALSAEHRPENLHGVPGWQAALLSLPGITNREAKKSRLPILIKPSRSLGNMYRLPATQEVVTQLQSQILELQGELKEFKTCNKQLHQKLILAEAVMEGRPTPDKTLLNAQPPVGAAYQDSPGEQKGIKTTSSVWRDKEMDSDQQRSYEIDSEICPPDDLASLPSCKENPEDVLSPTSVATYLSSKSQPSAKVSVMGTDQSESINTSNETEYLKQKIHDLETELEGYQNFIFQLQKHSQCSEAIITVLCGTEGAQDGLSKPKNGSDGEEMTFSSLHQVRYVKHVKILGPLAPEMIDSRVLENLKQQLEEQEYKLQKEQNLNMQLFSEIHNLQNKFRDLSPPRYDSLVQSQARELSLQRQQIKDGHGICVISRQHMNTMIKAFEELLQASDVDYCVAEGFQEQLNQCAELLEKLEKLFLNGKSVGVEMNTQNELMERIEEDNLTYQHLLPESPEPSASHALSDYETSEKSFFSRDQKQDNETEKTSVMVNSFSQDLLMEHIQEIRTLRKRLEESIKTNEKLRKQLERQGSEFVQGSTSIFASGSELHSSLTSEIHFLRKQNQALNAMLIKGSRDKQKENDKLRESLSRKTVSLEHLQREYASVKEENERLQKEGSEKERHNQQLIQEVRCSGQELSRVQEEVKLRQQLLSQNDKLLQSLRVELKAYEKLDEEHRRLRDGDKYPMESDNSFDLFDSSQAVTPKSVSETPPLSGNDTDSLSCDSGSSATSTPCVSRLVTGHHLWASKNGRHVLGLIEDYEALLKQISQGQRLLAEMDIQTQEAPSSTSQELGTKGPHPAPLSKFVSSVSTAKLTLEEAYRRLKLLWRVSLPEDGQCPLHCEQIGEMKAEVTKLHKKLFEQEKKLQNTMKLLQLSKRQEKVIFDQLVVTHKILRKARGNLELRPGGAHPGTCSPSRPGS

No constants are given. Whether binding was seen depends on the method and setting.

B1: mCherry::HSET(ΔIDR), lacking the N-terminal intrinsically disordered region (missing a.a. 2–138) (domain or fragment, UniProt Q9BW19)
chain: MLKGQLCDLNAELKRCRERTQTLDQENQQLQDQLRDAQQQVKALGTERTTLEGHLAKVQAQAEQGQQELKNLRACVLELEERLSTQEGLVQELQKKQVELQEERRGLMSQLEEKERRLQTSEAALSSSQAEVASLRQETVAQAALLTEREERLHGLEMERRRLHNQLQELKGNIRVFCRVRPVLPGEPTPPPGLLLFPSGPGGPSDPPTRLSLSRSDERRGTLSGAPAPPTRHDFSFDRVFPPGSGQDEVFEEIAMLVQSALDGYPVCIFAYGQTGSGKTFTMEGGPGGDPQLEGLIPRALRHLFSVAQELSGQGWTYSFVASYVEIYNETVRDLLATGTRKGQGGECEIRRAGPGSEELTVTNARYVPVSCEKEVDALLHLARQNRAVARTAQNERSSRSHSVFQLQISGEHSSRGLQCGAPLSLVDLAGSERLDPGLALGPGERERLRETQAINSSLSTLGLVIMALSNKESHVPYRNSKLTYLLQNSLGGSAKMLMFVNISPLEENVSESLNSLRFASKVNQCVIGTAQANRK
For the molecule B1, the binding entry was “no binding (tested: 50 nM)”.

For the origin of these results see publication PMC12273628, “In vitro reconstitution of a minimal human centrosome scaffold capable of forming and clustering microtubule asters” (Journal of Cell Science, 2025).
